Where “and” joins values, the source holds several entries; their conditions need not be identical. Equal values may be shown once. Not every detail of the peptide structures is certain; ends, links or a residue may be inferred. Some of these results come from one statement about several compounds together. Peptide text beside a SMILES is read from it. * marks the point of attachment. X1 = CCCCCCCCCCCCCCCC(=O)OCC(C*)OC(=O)CCCCCCCCCCCCCCC; Palmitoyl = CCCCCCCCCCCCCCCC(=O)*
What was measured:
Assay type in all cases: in vivo, C57BL/6 mice
[1] = test system: liver (LV); assay: Whole organ transcriptome (GeneChip microarray) of liver 6 h after adjuvant administration: sDEGs, hierarchical clustering; for adjuvant group (cluster) in LV: key: G1 (interferon signaling); G2 (metabolism of lipids and lipoproteins); G3 (response to stress); G4 (response to wounding); G5 (phosphate-containing compound metabolic process); G6 (phagosome)
[2] = test system: spleen (SP); assay: Whole organ transcriptome (GeneChip microarray) of spleen 6 h after adjuvant administration: sDEGs, hierarchical clustering; settings: i.d. administration
[3] = test system: inguinal lymph nodes (LN); assay: Whole organ transcriptome (GeneChip microarray) of draining inguinal lymph nodes 6 h after adjuvant administration: sDEGs, gene modules, hierarchical clustering; for adjuvant group (cluster) in LN: key: G1 (interferon signaling); G2 (metabolism of lipids and lipoproteins); G3 (response to stress); G4 (response to wounding); G5 (phosphate-containing compound metabolic process); G6 (phagosome)
[4] = test system: LV, SP and LNs; assay: Whole organ transcriptome across organs (adjuvant gene space): gene responses and adjuvant grouping
[5] = test system: preferentially upregulated genes in LV, SP, LN; assay: Z-score-based differential gene expression analysis (adjuvant group- or adjuvant-associated genes, 40 module mapping, TargetMine annotation); settings: liver (LV); gene group G1, module 20; individual mice x1-x3; route ID/IP/IN
Text: Each sample's FC value was converted into a z-score on a gene basis by using the entire data set for each organ. The Z-score of the triplicates of interest were summed for each adjuvant. For example, the three sample z-score in the LV sample following cdiGMP administration was summed on a gene-by-gene basis, after which the summed scores of >3 genes were selected as relatively preferentially expressed genes in the LV after cdiGMP administration. The following threshold was applied for selections. […] G2^LV: ALM_IP(z>1) & bCD(z>1) & ENDCN(z>1) & FCA(z>1). […] G4^LV: MALP2s(z>3). […] G2^SP: ENDCN_x2+ENDCN_x3(z>2) & ALM_IP(z>3) & bCD(z>3). […] G4^SP: ADX_ID_x2+ADX_ID_x3(z>2) & ADX_IP(z>3) & MALP2s(z>3). […] G2^LN: bCD(z>3) & FCA(z>3). […] G5^LN: K3(z>1.5) & K3SPG_x1+K3SPG_x2(z>1) & D35_x1+D35_x3(z>1). G6^LN: AddaVax(z>3).

SMILES: CCCCCCCCCCCCCCCC(=O)N[C@@H](CSCC(COC(=O)CCCCCCCCCCCCCCC)OC(=O)CCCCCCCCCCCCCCC)C(=O)N[C@@H](CO)C(=O)N[C@@H](CCCCN)C(=O)N[C@@H](CCCCN)C(=O)N[C@@H](CCCCN)C(=O)N[C@@H](CCCCN)C(=O)O (stereo partly drawn) [Pam3CSK4, Pam-3-Cys-Ser-Lys-Lys-Lys-Lys] (Palmitoyl-C(X1)SKKKK-OH)
- adjuvant group (cluster) in LV ([1]; hierarchical clustering): G3
- Number of gene probes with statistically significant changes (sDEGs), LV, Down ([1]; i.d. administration, fold change <0.667, p<0.01, customized PA call=1, 6 h after adjuvant): 51
- Number of gene probes with statistically significant changes (sDEGs), LV, Up ([1]; i.d. administration, fold change >1.5, p<0.01, customized PA call=1, 6 h after adjuvant): 114
- Number of gene probes with statistically significant changes (sDEGs), SP, Down ([2]; fold change <0.667, p<0.01, customized PA call=1): 50
- Number of gene probes with statistically significant changes (sDEGs), SP, Up ([2]; fold change >1.5, p<0.01, customized PA call=1): 200
- genes in module 16 of the LNs (M16^LN), phagosome-related, macrophage-associated ([3]; LN, 6 h): upregulated
- adjuvant group (cluster) in LN ([3]; hierarchical clustering, lymph node): G1
- Number of gene probes with statistically significant changes (sDEGs), LN, Down ([3]; i.d. administration, lymph node, fold change <0.667, p<0.01, customized PA call=1, 6 h after adjuvant): 27
- Number of gene probes with statistically significant changes (sDEGs), LN, Up ([3]; i.d. administration, lymph node, fold change >1.5, p<0.01, customized PA call=1, 6 h after adjuvant): 23
- consistency of gene responses among individual mice and organs ([4]; 6 h, FIG. 5): varying gene responses among the individual mice and organs
- number of significantly differentially expressed genes (sDEGs) ([4]; volcano plot data, 6 h after administration, administered locally, FC >1.5 or <0.667, p<0.01, customized PA call 1): 100-200 sDEGs
- Z score of gene expression, Adar (probe 1425405_a_at) [5]: −0.3 and −0.5 and −0.2
- Z score of gene expression, Adar (probe 1434268_at) [5]: −0.2 and −0.4 (2×)
- Z score of gene expression, Ddx58 (probe 1436562_at) [5]: −0.5 (2×) and −0.6
- Z score of gene expression, Ddx58 (probe 1456890_at) [5]: −0.4
- Z score of gene expression, Eif2ak2 (probe 1422005_at) [5]: −0.5 (2×) and −0.3
- Z score of gene expression, G3bp2 (probe 1421323_a_at) [5]: −0.6 and −0.4 (2×)
- Z score of gene expression, Gm9706///Isg15 (probe 1431591_s_at) [5]: −0.4 and −0.5 (2×)
- Z score of gene expression, H2-T10///H2-T22///H2-T9 (probe 1449875_s_at) [5]: −0.5 (2×) and −0.6
- Z score of gene expression, Ifih1 (probe 1426276_at) [5]: −0.4 (2×) and −0.5
- Z score of gene expression, Ifit1 (probe 1449025_at) [5]: −0.4 and −0.5 (2×)
- Z score of gene expression, Ifit1 (probe 1450783_at) [5]: −0.4 (2×) and −0.5
- Z score of gene expression, Irf7 (probe 1417244_a_at) [5]: −0.4 and −0.6 and −0.3
- Z score of gene expression, Irgm1 (probe 1418825_at) [5]: −0.3 (2×) and −0.4
- Z score of gene expression, Mndal (probe 1426906_at) [5]: −0.6 (2×) and −0.4
- Z score of gene expression, Pml (probe 1448757_at) [5]: −0.2 (2×) and −0.4
- Z score of gene expression, Pml (probe 1456103_at) [5]: −0.2 and −0.5 (2×)
- Z score of gene expression, Rnf213 (probe 1455500_at) [5]: −0.2 and −0.3 (2×)
- Z score of gene expression, Rsad2 (probe 1436058_at) [5]: −0.4 (2×) and −0.5
- Z score of gene expression, Shisa5 (probe 1423986_a_at) [5]: −0.5 (2×) and −0.3
- Z score of gene expression, Shisa5 (probe 1437503_a_at) [5]: −0.4 (2×) and −0.6
- Z score of gene expression, Stat1 (probe 1450033_a_at) [5]: −0.4 and −0.5 and −0.3
- Z score of gene expression, Stat1 (probe 1450034_at) [5]: −0.5 (2×) and −0.4
- Z score of gene expression, Tdrd7 (probe 1426716_at) [5]: −0.1 and −0.4 and −0.2
- Z score of gene expression, Tor1aip2 (probe 1418115_s_at) [5]: −0.3 (2×) and −0.4
- Z score of gene expression, Tor1aip2 (probe 1418116_at) [5]: −0.3 (2×) and −0.4
- Z score of gene expression, Tor1aip2 (probe 1435526_at) [5]: −0.5 and −0.4 (2×)
- Z score of gene expression, Trim12a (probe 1437432_a_at) [5]: −0.3 and −0.4 (2×)
- Z score of gene expression, Uba7 (probe 1426970_a_at) [5]: −0.4 and −0.6 (2×)

From patent publication US20230021483A1, “[…] […] METHOD AND CLASSIFICATION OF PHARMACEUTICAL COMPONENTS BY USING TRANSCRIPTOMES” (National Institutes of Biomedical Innovation, Health and …, priority 2016, published 2023)
